One test concerns Hut-78 CTLC cell line. Put plainly: MTT cell viability assay, 48 hours. The format is cell-based, human. As to the method: (§1) […]. The MyLa CTLC cell line (originating from an indolent mycosis fungoides patient) and the Hut-78 CTLC cell line (originating from an aggressive Sézary patient) were used to evaluate toxicity towards cancer cells, and peripheral blood lymphocytes (PBLs) from healthy volunteers were used to evaluate toxicity towards noncancerous cells.
(§2) Cell viability was determined by an MTT cell viability assay after 48 hours. MyLa cells (10^4 cells/well), Hut78 cells (5×10^3 cells/well) and normal PBLs (10^5 cells/well) were seeded in 96 well-plates. The PBLs were activated with 40 μg/10^6 cells of phytohemagglutinine (PHA) for 24 h before the experiment.

In a further test the test system is MyLa CTLC cell line. Put plainly: MTT cell viability assay, 48 hours. The test is classed as cell-based, human. As to the method:
as §1, §2
Background: Tetrazolium assays rely on reduction of a dye to a coloured formazan, in cell work by metabolically active cells.

The subject of test [1] is peripheral blood lymphocytes (PBLs) from healthy volunteers. Put plainly: MTT cell viability assay, 48 hours. The test is classed as cell-based. As to conditions: Homo sapiens, Lymphocyte, PHA-activated normal PBLs. As to the method:
as §1, §2

The next test has as its system MDA-231 cells. Put plainly: Median-effect drug interaction, Hoechst viability, 72 h. The test is classed as cell-based. Conditions: Homo sapiens. As to the method:
The ratios of the drug combination were based on the ratio of their IC50 of each drug alone. Cell viability was determined by MTT assay, as described hereinabove. The drugs were added to the cells and incubated for 72 h.
Drug interaction in adherent cells was evaluated as above except that the viability was determined by Hoechst assay.

The next test concerns HUT-78 CTCL cells. Put plainly: Median-effect drug interaction, MTT viability, 72 h. As to conditions: Homo sapiens, HuT78. The format is cell-based. The method, then: as §2
(§3) The interaction between AN446 or SAHA with Dox was evaluated in PBLs and cancer cells according to the median-effect method. The ratios of the drug combination were based on the ratio of their IC50 of each drug alone. Cell viability was determined by MTT assay, as described hereinabove. The drugs were added to the cells and incubated for 72 h.

The next test relates to PBL. The test is described as above. Conditions: Homo sapiens. The test is classed as cell-based. The method, then:
as §2, §3

Another test deals with U251 cells. Put plainly: Hoechst viability assay 72 h / median-effect combination study. Conditions: Homo sapiens, U-251, 72 h, read-out: IC50 value for viability in U251 cells after 72 hours.

Read-outs that look alike come from different tables or passages of the source.

What is called IC50 is the midpoint of a concentration-inhibition curve. As for `O=C(CCCCCCC(=O)Nc1ccccc1)NO` [SAHA, suberanilohydroxamic acid], the 50% inhibitory concentration (IC50) is 700 ± 50 nM in the test with Hut-78 CTLC cell line (Homo sapiens, HuT78, MTT, 48 hours); 4.3 ± 0.18 µM with MyLa CTLC cell line (Homo sapiens, MTT, 48 hours); 2500 ± 100 nM in test [1]; 630 nM in the test on MDA-231 cells (MDA-MB-231, MDA-231, in combination with Dox, read-out: com IC50); 100 nM with MDA-231 cells (MDA-MB-231, MDA-231, single agent, Table 2, read-out: IC50); 1200 ± 300 nM in the test with MDA-231 cells (MDA-MB-231, MDA-231, single agent, Table 3, read-out: IC50). Also, the IC50 with HUT-78 CTCL cells (HUT-78, in combination with Dox, read-out: com IC50) was determined as 630 nM; with HUT-78 CTCL cells (HUT-78, single agent, Table 2, read-out: IC50), 640 nM; with PBL (in combination with Dox, read-out: com IC50) it was 500 nM; in the test on PBL (single agent, Table 2, read-out: IC50) it was 2500 nM; in the test with U251 cells it was 1000 nM. Besides, the “toxicity to Hut-78 cells relative to normal PBLs” value in the test with Hut-78 CTLC cell line (from Table 1 IC50 values) is on record as “only moderately more toxic to Hut-78 cells than to PBLs”. For the same compound, the “toxicity to MyLa cells relative to normal PBLs” value in the test with MyLa CTLC cell line (from Table 1 IC50 values) was “more toxic to PBLs than to MyLa cells”.

(Values after patent US20160228444A1, “NUCLEOSIDE ANALOGS AND USES THEREOF” (Ramot at Tel-Aviv University Ltd., priority 2015, published 2016).)
